Measurements: PMC6726247

Chains of the proteins cited; added tags and fusions are not shown.
UniProt Q9CWH6: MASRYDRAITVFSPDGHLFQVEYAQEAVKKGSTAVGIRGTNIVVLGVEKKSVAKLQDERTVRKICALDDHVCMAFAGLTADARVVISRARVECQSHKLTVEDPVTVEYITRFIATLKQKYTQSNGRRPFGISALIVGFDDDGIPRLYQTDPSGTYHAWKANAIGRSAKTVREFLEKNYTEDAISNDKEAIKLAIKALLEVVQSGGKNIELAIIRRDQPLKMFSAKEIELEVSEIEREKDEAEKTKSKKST
UniProt P70398: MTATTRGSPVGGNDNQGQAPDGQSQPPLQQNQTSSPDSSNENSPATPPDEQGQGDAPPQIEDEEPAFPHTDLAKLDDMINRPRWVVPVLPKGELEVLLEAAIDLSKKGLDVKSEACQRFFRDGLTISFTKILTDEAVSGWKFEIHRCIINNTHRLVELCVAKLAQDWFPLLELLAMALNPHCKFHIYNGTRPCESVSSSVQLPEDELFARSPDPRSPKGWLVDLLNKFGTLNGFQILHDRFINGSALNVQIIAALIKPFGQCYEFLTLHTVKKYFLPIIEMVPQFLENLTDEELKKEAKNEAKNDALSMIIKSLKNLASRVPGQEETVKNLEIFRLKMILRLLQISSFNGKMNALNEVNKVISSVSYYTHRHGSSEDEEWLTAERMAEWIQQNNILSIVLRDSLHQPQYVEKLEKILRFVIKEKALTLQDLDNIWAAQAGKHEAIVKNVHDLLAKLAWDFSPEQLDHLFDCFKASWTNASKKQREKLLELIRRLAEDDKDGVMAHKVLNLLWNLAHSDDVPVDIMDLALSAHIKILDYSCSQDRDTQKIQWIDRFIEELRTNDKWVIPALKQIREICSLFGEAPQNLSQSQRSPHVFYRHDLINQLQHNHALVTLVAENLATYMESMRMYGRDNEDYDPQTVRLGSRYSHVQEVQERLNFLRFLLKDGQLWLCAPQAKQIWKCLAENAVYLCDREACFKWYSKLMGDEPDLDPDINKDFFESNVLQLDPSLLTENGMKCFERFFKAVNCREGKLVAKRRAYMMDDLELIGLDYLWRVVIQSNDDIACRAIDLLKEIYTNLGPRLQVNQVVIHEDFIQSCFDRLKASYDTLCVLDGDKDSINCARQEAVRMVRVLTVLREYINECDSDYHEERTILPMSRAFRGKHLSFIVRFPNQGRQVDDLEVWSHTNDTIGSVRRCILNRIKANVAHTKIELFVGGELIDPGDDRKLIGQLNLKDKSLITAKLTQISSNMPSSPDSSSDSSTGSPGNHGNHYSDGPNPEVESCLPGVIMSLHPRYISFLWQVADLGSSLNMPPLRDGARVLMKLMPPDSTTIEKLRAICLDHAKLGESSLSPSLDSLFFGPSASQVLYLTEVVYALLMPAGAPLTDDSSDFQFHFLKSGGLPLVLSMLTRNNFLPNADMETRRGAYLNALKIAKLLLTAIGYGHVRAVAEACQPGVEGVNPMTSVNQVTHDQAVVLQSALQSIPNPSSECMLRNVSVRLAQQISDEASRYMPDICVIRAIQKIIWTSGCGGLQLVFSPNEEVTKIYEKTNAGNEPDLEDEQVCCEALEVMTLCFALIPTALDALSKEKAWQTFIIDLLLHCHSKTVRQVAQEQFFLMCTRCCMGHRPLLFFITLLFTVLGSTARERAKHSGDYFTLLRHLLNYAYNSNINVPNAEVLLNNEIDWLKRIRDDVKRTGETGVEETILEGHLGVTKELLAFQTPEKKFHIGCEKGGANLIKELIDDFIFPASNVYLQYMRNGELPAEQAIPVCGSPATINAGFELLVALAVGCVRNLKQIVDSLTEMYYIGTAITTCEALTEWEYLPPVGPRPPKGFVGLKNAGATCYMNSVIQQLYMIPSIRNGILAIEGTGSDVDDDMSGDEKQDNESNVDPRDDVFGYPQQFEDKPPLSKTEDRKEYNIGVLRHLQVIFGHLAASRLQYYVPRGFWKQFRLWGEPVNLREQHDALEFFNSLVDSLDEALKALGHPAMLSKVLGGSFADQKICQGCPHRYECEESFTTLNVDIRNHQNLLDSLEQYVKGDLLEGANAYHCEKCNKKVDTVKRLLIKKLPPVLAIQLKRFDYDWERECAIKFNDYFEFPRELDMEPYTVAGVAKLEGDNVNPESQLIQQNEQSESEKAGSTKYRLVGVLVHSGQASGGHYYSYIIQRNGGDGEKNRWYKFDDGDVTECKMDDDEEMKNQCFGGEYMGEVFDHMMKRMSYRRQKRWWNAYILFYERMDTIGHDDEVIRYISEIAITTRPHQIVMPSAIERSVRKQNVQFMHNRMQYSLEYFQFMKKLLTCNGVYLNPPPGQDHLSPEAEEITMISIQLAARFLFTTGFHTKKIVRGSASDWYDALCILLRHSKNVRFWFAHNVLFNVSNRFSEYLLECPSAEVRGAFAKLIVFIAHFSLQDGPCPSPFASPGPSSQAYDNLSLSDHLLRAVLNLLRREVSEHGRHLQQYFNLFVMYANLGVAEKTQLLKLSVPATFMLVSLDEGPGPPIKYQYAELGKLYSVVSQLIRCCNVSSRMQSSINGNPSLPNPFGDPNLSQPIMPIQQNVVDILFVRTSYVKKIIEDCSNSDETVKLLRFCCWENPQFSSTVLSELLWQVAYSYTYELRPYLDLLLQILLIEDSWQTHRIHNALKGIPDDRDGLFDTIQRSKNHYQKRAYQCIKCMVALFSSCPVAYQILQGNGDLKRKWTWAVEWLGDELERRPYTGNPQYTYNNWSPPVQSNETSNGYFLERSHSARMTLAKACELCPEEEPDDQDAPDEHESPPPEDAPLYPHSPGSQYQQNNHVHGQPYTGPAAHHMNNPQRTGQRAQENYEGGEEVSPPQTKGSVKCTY
UniProt P11440: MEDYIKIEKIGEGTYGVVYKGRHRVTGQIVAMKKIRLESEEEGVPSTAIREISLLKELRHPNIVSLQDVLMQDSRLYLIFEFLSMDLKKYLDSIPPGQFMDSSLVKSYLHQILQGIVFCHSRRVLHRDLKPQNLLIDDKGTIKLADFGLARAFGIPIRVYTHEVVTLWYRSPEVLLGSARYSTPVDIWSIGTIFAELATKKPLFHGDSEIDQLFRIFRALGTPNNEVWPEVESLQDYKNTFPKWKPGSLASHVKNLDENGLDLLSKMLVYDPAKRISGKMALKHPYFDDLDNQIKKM
UniProt Q9QXK2: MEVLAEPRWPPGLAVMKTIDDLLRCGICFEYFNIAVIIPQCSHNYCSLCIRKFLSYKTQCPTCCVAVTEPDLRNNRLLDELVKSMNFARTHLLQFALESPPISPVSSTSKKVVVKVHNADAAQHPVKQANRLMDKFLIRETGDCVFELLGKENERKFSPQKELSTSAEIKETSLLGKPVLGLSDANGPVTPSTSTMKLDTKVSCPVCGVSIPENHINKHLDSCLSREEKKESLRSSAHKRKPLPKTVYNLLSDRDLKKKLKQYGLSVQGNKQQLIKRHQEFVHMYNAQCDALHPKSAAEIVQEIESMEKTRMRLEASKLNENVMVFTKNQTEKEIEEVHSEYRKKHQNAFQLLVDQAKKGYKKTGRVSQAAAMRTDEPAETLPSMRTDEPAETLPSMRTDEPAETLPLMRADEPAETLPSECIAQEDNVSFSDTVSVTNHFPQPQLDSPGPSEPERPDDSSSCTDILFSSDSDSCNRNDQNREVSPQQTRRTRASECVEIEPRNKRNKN
UniProt Q61390: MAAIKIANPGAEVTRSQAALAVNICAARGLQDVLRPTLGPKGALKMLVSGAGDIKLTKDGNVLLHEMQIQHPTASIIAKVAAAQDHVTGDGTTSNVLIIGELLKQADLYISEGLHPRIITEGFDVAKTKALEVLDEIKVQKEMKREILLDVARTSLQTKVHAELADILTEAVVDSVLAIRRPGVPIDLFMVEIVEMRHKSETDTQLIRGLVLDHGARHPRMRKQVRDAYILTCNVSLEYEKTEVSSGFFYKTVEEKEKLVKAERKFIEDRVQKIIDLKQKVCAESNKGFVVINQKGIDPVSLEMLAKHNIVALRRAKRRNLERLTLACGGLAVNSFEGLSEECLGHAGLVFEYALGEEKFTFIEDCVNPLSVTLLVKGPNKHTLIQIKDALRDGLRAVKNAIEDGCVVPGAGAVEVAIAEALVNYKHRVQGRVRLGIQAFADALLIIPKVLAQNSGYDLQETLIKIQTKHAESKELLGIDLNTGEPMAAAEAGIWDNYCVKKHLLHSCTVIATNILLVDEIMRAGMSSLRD
UniProt P61407: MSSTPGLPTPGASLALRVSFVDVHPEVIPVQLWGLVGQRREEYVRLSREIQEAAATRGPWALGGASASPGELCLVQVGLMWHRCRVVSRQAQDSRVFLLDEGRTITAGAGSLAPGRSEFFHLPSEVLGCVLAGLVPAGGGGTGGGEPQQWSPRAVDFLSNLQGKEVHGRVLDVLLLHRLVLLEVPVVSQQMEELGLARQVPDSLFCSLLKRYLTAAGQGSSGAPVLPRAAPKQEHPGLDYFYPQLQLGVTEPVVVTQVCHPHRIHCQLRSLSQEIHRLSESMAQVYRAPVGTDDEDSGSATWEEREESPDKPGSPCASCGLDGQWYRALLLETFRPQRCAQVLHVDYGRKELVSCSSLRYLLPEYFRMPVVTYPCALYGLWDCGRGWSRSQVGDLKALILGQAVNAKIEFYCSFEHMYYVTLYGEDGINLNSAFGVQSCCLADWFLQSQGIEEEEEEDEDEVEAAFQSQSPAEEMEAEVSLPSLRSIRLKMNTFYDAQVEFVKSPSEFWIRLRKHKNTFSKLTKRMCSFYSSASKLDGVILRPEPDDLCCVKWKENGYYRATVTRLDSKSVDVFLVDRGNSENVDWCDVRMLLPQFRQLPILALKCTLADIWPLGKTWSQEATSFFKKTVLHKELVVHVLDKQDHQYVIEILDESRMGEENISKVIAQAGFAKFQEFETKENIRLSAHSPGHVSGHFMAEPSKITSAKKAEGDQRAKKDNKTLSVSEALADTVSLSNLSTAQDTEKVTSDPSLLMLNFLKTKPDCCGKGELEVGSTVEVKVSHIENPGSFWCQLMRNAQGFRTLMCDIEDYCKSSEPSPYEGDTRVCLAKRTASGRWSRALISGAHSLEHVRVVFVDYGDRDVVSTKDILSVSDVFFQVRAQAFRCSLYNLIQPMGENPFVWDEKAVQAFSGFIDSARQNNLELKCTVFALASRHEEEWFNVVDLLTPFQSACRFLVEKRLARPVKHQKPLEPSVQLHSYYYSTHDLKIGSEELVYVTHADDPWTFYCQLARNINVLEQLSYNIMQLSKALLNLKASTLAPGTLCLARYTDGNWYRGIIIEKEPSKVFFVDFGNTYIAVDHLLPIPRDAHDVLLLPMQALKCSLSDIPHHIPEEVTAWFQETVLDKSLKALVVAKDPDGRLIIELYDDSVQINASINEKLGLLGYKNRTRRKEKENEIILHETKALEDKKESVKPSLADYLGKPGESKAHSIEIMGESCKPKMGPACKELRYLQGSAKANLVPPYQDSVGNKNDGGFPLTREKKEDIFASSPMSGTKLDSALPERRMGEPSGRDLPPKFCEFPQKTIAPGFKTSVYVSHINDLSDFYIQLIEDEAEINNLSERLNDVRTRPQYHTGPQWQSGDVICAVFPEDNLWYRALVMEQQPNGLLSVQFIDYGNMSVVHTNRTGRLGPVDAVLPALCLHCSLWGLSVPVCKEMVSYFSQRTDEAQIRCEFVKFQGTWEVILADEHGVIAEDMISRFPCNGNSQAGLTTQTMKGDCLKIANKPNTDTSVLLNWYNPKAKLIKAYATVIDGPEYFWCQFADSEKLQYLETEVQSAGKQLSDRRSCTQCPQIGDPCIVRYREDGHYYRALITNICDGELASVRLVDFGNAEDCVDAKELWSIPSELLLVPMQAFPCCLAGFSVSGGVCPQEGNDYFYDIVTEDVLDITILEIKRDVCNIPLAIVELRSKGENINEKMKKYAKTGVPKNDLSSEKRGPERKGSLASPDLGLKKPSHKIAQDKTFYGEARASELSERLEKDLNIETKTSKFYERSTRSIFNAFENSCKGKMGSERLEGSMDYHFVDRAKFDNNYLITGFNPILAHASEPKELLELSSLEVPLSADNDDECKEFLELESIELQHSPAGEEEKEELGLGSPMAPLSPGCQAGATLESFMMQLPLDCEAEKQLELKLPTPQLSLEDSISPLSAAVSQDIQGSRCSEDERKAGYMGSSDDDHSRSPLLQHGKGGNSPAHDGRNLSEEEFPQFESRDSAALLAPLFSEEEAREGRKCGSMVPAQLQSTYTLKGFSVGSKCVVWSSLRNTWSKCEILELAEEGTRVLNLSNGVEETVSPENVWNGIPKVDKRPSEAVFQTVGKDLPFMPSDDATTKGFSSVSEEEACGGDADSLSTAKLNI

B1: SPATA20 (Spermatogenesis-associated protein 20) (protein, UniProt Q80YT5 1-790)
chain: MSHHSSPPPKHKGEHKGHGLPRGSERGSSSRDKDRSATTVSSSAPMPAGGKSSRTNCPPPAPPKTVNRLINEKSPYLLQHAYNPVDWYPWGQEAFDKAKKENKPIFLSVGYSTCHWCHMMEEESFQNEEIGRLLNENFICVMVDREERPDVDKVYMTFVQATSSGGGWPMNVWLTPGLQPFVGGTYFPPEDGLTRVGFRTVLMRICDQWKLNKNTLLENSQRVTTALLARSEISVGDRQIPASAATMNSRCFQQLDEGYDEEYGGFAEAPKFPTPVILNFLFSYWLSHRLTQDGSRAQQMALHTLKMMANGGIQDHVGQGFHRYSTDRQWHIPHFEKMLYDQAQLSVVYTQAFQISGDEFYADVAKGILQYVTRTLSHRSGGFYSAEDADSPPERGMKPQEGAYYVWTVKEVQQLLPEPVVGASEPLTSGQLLMKHYGLSEVGNINSSQDPNGELHGQNVLMVRYSLELTAARYGLEVEAVRALLNTGLEKLFQARKHRPKAHLDNKMLAAWNGLMVSGFAVTGAALGMEKLVAQATSGAKFLKRHMFDVSSGRLKRTCYAGTGGTVEQSNPPCWGFLEDYAFVVRGLLDLYEASQESSWLEWALRLQDTQDKLFWDPRGGGYFCSEAELGADLPLRLKDDQDGAEPSANSVSAHNLLRLHSFTGHKDWMDKCVCLLTAFSERMRRVPVALPEMVRTLSAQQQTLKQIVICGDPQAKDTKALLQCVHSIYVPNKVLILADGDPSSFLSRQLPFLSSLRRVEDRATVYIFENQACSMPITDPCELRKLLHQ
B2: SPAG1 (Sperm-associated antigen 1) (protein, UniProt Q80ZX8 1-901)
chain: MTAKAKDCPSLWGFGTTKTFKIPIEHLDFKYIENCSDVKHLEKILYVLRSGEEGYYPELTEFCEKCLTNLAPKSRALRKDKPAETASSFSAEEWEKIDSDLKSWVSEIKREENTCHFHDPENHPGVEDPLPPVRGSTCCPHSGKETYSKSKTAKKRIPRDYAEWDKFDVEKECSKIDEDYKEKTVINNKAHLSKIETKIETAGLTEKEKSFLANREKGKGNEAFYSGDYEEAVMYYTRSLSALPTAIAYNNRAQAEIKLQRWSSALEDCEKALELDPGNVKALLRRATTYKHQNKLQEAVDDLRKVLQVEPDNDLAKKTLSEVERDLKNSEPVSELQTKGKRMVIEEVENSGDEGGKGSADEREDGGSDEAAMGNIQKKLMVRRSEGGRRSRRGRTPGPRAEQQGGLRETATASTGDSHYPEEPRAADNPSGLKRRGNELFRGGQFAEAAAQYSVAIAQLEPTGSANADELSILYSNRAACYLKEGNCRDCIQDCNRALELHPFSVKPLLRRAMAYETLEQYRNAYVDYKTVLQIDCGIQLASDSANRIARILTELDGSKWRERLPPIPAVPTSEPLRVWLPAAETPDQDPCPNNCMPSITDEKMFQALKEEGNQLVKDKNYKDAISKYNECLKINSKACAIYTNRALCYLKLGQFEEAKLDCEQALQIDGENVKASHRLALAQKGLENCRESGVDPSQVLLSPDSSEAARHLDTKNDTAPPSKGRERRRIQVQEVDGSSDEEPERPAEASATSAPARDGVEDGGSAEPAEKLDVSKPTNAYEFGQVLSTISARKDEEACAHLLAITAPKDLPLLLSNKLEGDTFLLLIQSLKSHLVAKDPSLVYEHLLYLSKAERFKTMLTLINKGQKEQMAQLFDGLSDTQSDGLTAEDVQALRRQYEL
B3: TDRD1 (tudor domain protein) (protein, UniProt Q99MV1 1-1172)
chain: MMPRNNLEASTCKMAEPFNFEKKESKPPPQDPLRSPVAQHNHPTFRLKSPENGNTKNNFLLCEQNKQYLASQEDSSVVSSNPAVVNGEVGGSKGDRKPPPTGNPVSPLSLGNSSPPNQVKTKPSSNVTPEKSKKSHKLFENALSVNNPALFNSLGPPLRSTTCHRCGLFGSLRCSQCKQTYYCSTACQRRDWSSHSTICRPVQQSLNKLEDNKSPFETKAIEVKSEVDCPPGVTKEITAGAERVMFSDLRSLQLKKTMEIKGTVTEFKHPSNFYIQLYSSEVLENMNQLSTSLKETYANVVPEDGYLPVKGEVCVAKYTVDQTWNRAIVQAVDVLQRKAHVLYIDYGNEEMIPIDSVHPLSRGLDLFPPSAIKCCVSGVIPTAGEWSEGCVAAVKALLFEQFCSVKVMDILEEEVLTCAVDLVLQSSGKQLDHVLVEMGYGVKPGEQSSTEQSVDHSALEDVGRVTVESKIVTDRNALIPKVLTLNVGDEFCGVVAHIQTPEDFFCQQLQSGHKLAELQESLSEYCGHVIPRSDFYPTIGDVCCAQFSEDDQWYRASVLAYASEESVLVGYVDYGNFEILSLKRLCPIIPKLLDLPMQALNCVLAGVKPSLGIWTPEAVCVMKEMVQNRMVTVRVVGMLGTRALVELIDKSVAPHVSASKALIDSGFAIKEKDVADKGSSMHTASVPLAIEGPAEALEWTWVEFTVDETVDVVVCMMYSPGEFYCHFLKDDALEKLDDLNQSLADYCAQKPPNGFKAEIGRPCCAFFSGDGNWYRALVKEILPSGNVKVHFVDYGNVEEVTTDQLQAILPQFLLLPFQGMQCWLVDIQPPNKHWTKEATARFQACVVGLKLQARVVEITANGVGVELTDLSTPYPKIISDVLIREQLVLRCGSPQDSLMSRPANQHKQIDSHRVQASPSAEQWKTMELPVNKTIAANVLEIISPALFYAIPSEMSENQEKLCVLAAELLEHCNAQKGQPAYRPRTGDACCAKYTNDDFWYRAIVLETSESDVKVLYADYGNIETLPLSRVQPIPASHLELPFQIIRCSLEGPMELNGSCSQLVMELLRNAMLNQSVVLSVKAISKNVHAVSVEKCSENGMINIAENLVMCGLAENLTSKRKSASTKEIPHSRDCCCTELQKQIEKHEQILLFLLNNPTNQSKFTEMKKLLRS
B4: DAZL (deleted in azoospermia) (protein, UniProt Q64368 1-298)
chain: MSATTSEAPNSAVSREASTQSSSATTSQGYVLPEGKIMPNTVFVGGIDVRMDETEIRSFFARYGSVKEVKIITDRTGVSKGYGFVSFYNDVDVQKIVESQINFHGKKLKLGPAIRKQNLCTYHVQPRPLIFNPPPPPQFQSVWSSPNAETYMQPPTMMNPITQYVQAYPPYPSSPVQVITGYQLPVYNYQMPPQWPAGEQRSYVIPPAYTTVNYHCSEVDPGADILPNECSVHDAAPASGNGPQKKSVDRSIQTVVSCLFNPENRLRNSLVTQDDYFKDKRVHHFRRSRAVLKSDHLC
B5: USP47 (protein, UniProt Q8BY87 1-1376)
chain: MVPGEENQLVPKEDVFWRCRQNIFDEMKKKFLQIENAAEEPRVLCIIQDTTNSKTVSERITLNLPASTPVRKLFEDVANKVGYINGTFDLTRENGVTTADMAPLDHTSDKSLLDANFEPGKKNFLHLTDKDGEPPQMLLEDSNNVDDSVHDRFIGPLPREGSVASTNDYVSQNYSYSSILNKSETGYVGLVNQAMTCYLNSLLQTLFMTPEFRNALYKWEFEDSEEDPVTSIPYQLQRLFVLLQTSKKRAIETTDVTRSFGWDSSEAWQQHDVQELCRVMFDALEQKWKQTEQADLINELYQGKLKDYVRCLECGYEGWRIDTYLDIPLVIRPYGSSQAFASVEEALHAFIQPEILDGPNQYFCERCKKKCDARKGLRFLHFPYLLTLQLKRFDFDYTTMHRIKLNDRMSFPEELDMSTFIDIEDEKSPQTESCTDSGAENEGSCHSDQMSNDFSTDDAVDEGICLESSSGSEKISKPGLEKNSLMYELFSVMVHSGSAAGGHYYACIKSFSDDQWYSFNDQHVSRITQEDIKKTHGGSSGSRGYYSSAFASSTNAYMLIYRLKDPTRNAKFLEVDEYPEHIKNLVQKERELEEQEKRQREIERNTCKIKLFCLHPVKQVMMENKLEVHKDKTLKEAVEMAYKMMDLEDVIPLDCCRLVKYDEFHDYLERSYEGEEDTPMGLLLGGVKSTYMFDLLLETRKPDQIFQSYKPGEVMVKVHVVDLKAETVAAPVTVRAYLNQTVTEFKQLISKATHLPADSMRIVLERCYNDLRLLSMPSKTLKAEGFFRSNKVFVESSETVDHQAAFTDSHLWKLLDRHANTIRLFVLLPEQSPGSYSKRTAYQKAGGDSGNVDDDCERVKGPAGNLKSVDAILEESTEKLKSLSLQQQQQDGDNGDSSKSTETSDFENIESPLNERGSSTSVDNRELEQHIQTSDPENFQSEERSDSDVNNDRSTSSVDSDILSSSHSSDTLCNADSAQIPLANGLDSHSITSSRRTKANEGKKETWDTAEEDSGTDSEYDESGKSRGDMQYMYFKADPYTADEGSGEGHKWLMVHVDKRITLAAFKQHLEPFVGVLSSHFKVFRVYTSNQEFETVRLNETLSSFSDDNKITIRLGRALKKGEYRVKVCQLLVNEQEPCKFLLDAVFAKGMTVRQSKEELIPQLREQCGLDLSIDRFRLRKKTWKNPGTVFLDYHIYEEDINISSNWEVFLEVLDGVEKMKSMSQLAILTRRWRPAEMKLDPFQELVLESNSVDELREKLSEISGIPLEDIEFAKGRGTFPCDISVLDIHQDLDWNPKVSTLNVWPLYICDDGAVIFYRDRTEEVMELTDEQRNELMKKESSRLQKTGHRVTYSPRKEKALKIYLDGAPNKDVAQD
B6: SPATA5 (Spermatogenesis-associated protein 5) (protein, UniProt Q3UMC0 1-893)
chain: MSSKKNRKRQKEGAEGASPSLSAAPSRSGTSTPFAQPSPAAPGMLVVTNFLEKVDGKVPKTFQNSLVHLGLNTMKSANICIGRPVLLTSLDGKQEVYTAWPVAGFPGGKVGLSEMAQKNVGVRAGETIQVQPLLGAVLQAQEMDLALSDKDKEINEEELTGCILRKLDGKIVLPGNFLYCTFYGRLCKLQVLQVKGTDGTTLGKLQSASGTDAQGMASEHSSMESSDVDLSFQLSQLDLKEPQSPSSQSTPCKPTNDRTVNKAGEVLLDVTQSPRDGSGLGLEESTGLKCSFDSSKEGNTQPVSEEKLLKPASAGTKSNTDTFYFISSTTRINLRKICTNSKEQDSQFKVTYDMIGGLNSQLKAIREIIELPLKQPELFKSYGIPAPRGLLLYGPPGTGKTMIARAVANEVGAYVSVINGPEIISKFYGETEARLRQIFAEATLRHPSIIFIDELDALCPKREGAQSEVEKRVVASLLTLMDGIGSEGSEGRVLVLGATNRPQALDAALRRPGRFDKEIEIGIPNAQDRLDILQKLLRRVPHLLTKAELLRLANNAHGYVGADLKALCNEAGLHALRRVLRKQPNLPDSKVAGMVKITLNDFLQGMNDIRPSAMREVAIDVPNVSWSDIGGLENIKLKLKQAVEWPLKHPKSFNRMGIQPPKGVLLYGPPGCSKTMIAKALANESGLNFLAIKGPELMNKYVGESERAVREIFRKARAVAPSIIFFDELDALAVERGSSSGAGNVADRVLAQLLTEMDGIEQLKNVTVLAATNRPDRIDKALMRPGRIDRIIYVPLPDAATRREILNLQFHSMPISNEVDLDELVLQTDTYSGAEIIAVCKEAALLALEENIKADCIMKRHFTQALSIVTPRIPESLRRFYEDYQEKSGLHTV

biological target: PSMA8 (testis-specific proteasomal subunit α4s), endogenous (mouse (endogenous in testis)) (UniProt Q9CWH6); assay: affinity purification with mass spectrometry; anti-PSMA8 antibodies R1 and R2 (detect PSMA7/8) bound to sepharose beads; 20 mg wild-type mouse testis extract in 50mM Tris HCl (pH8), 500mM NaCl, 1mM EDTA, 1% tritonX-100, o/n; buffer lacking ATP and glycerol; eluted in 100 mM glycine pH3

binding, binds:
USP9X (from UniProt P70398 1-2559)
CDK1 (cyclin dependent kinase), endogenous (from UniProt P11440 1-297)
USP5 (from UniProt P56399 1-858)
RAD18 (from UniProt Q9QXK2 1-509)
CCT6b (from UniProt Q61390 1-531)
TDRD6 (tudor domain protein) (from UniProt P61407 1-2134)
USP34 (from UniProt Q6ZQ93 1-3582)
TRIP12 (from UniProt G5E870 1-2025)
RNF17 (from UniProt Q99MV7 1-1640)
NEDD4 (from UniProt P46935 1-887)
B1
B2
B3
B4
B5
B6

These are yes or no findings as the source states them, for the method shown. In cells and extracts the contact can be indirect. These calls come from enrichment with a bait or labelling near it, and not all partners need be listed.
